The list shows a part of the results. Further columns of the screen follow, without active or inactive calls. Compounds called inactive in the main read-out are mostly missing here. Words in brackets tell the shape of the fitted curve; partial curves, single points and poor fits give uncertain potencies.
Assay: qHTS Assay for Lipid Storage Modulators in Drosophila S3 Cells;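 on cell number change: cells counted by Cell Tracker Red CMTPX staining in the red channel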
Conditions: BODIPY lipid droplet fluorescence, 18-24 h; for cell number change: measured here: cell count max response, cells fed with added oleic acid
How it was run: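 Drosophila S3 cells got compounds at several concentrations plus oleic acid (400 uM solution). Laser-scanning cytometry with 488 nm excitation read lipid droplets at 500-530 nm and cells at 575-640 nm. Percent activity was relative to 20 uM Triacsin C.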

[1] = measured here: cell number channel AC50, cells fed with added oleic acid
[2] = measured here: lipid fluorescence (Fed channel) AC50, cells fed with added oleic acid

SMILES | cell number change [%] | AC50 [1] | AC50 [2]
O=C(O)CN1C(=O)C2(OCCCO2)c2ccccc21 | -21.1 | 0.411 µM [falling, full curve, poor fit] | –
COc1cc(N=Cc2c(CO)cnc(C)c2O)cc(OC)c1OC | -8.99 | – | 29.1 µM [rising, single point]
CCNC(=O)CSC1=N/C(=C\c2ccc(O)c(OCC)c2)C(=O)N1c1ccc(OC(F)F)cc1 | 40.8 | 29.1 µM [rising, single point] | –
CC(=O)N/C(=C\c1ccccc1)C(=O)OCC(=O)NC(C)C12CC3CC(CC(C3)C1)C2 (stereo not drawn) | -1.08 | – | 29.1 µM [falling, single point]
O=C(NC1CCCCC1)C1CC(=O)N(CCc2ccccc2)C1 (stereo not drawn) | 17.2 | – | –
CN(C(=O)CSc1nnc(COc2ccccc2F)n1N)C1CCCCC1 | -14.1 | – | 6.51 µM [rising, single point]
CCCn1c(N)c(N(CCOC)C(=O)c2ccc(Cl)c([N+](=O)[O-])c2)c(=O)[nH]c1=O | 4.2 | – | –
CCOC(=O)c1c(-c2cccc([N+](=O)[O-])c2)csc1NC(=O)C1CC1 | -10.7 | – | –
COc1ccc(NC(=S)NCc2ccc(F)cc2)c(OC)c1 | 5.84 | 0.0116 µM [rising, full curve, poor fit] | –
CN(C)S(=O)(=O)c1ccc(C(=O)Nc2nnc(Cc3ccccc3)s2)cc1 | -9.06 | – | 0.58 µM [falling, partial curve, poor fit]
O=c1cc(-c2ccc(Cl)c(Cl)c2)[nH][nH]1 | -20.9 | – | 1.46 µM [falling, partial curve]
COc1ccc(C2Nc3ccccc3C(=O)N2Cc2ccccc2)cc1Cn1nnc2ccccc21 (stereo not drawn) | -34.5 | 14.6 µM [falling, partial curve] | –
COc1ccc(C(c2c(N)[nH]c(=S)[nH]c2=O)c2c(N)[nH]c(=S)[nH]c2=O)cc1 | 2.54 | – | –
CCc1ccc(-c2cc(N)n(-c3ccccc3)n2)cc1 | -0.848 | 0.58 µM [falling, single point] | –
O=C(Nc1c2c(nc3ccccc13)CCCC2)c1ccccc1F | 5.37 | – | 0.58 µM [rising, full curve, poor fit]
CC(Sc1n[nH]c(=O)n1Cc1ccccc1)C(=O)NC1CCCCC1C (stereo not drawn) | 35.2 | 10.3 µM [rising, single point] | 14.6 µM [rising, single point]
O=C(Nc1ccc(S(=O)(=O)Nc2ncccn2)cc1)C1CC(=O)N(c2ccccc2)C1 (stereo not drawn) | -99.5 | 29.1 µM [falling, partial curve, poor fit] | –
CCn1cc(Br)c(C(=O)Nc2ccc(C(=O)OC(C)C)cc2)n1 | -8.85 | – | 1.03 µM [rising, single point]

Shown as comma-separated lines: 2 of the compounds above.
SMILES,cell number change [%],AC50 [1],AC50 [2]
CC(Sc1n[nH]c(=O)n1Cc1ccccc1)C(=O)NC1CCCCC1C (stereo not drawn),35.2,"10.3 µM [rising, single point]","14.6 µM [rising, single point]"
O=C(Nc1ccc(S(=O)(=O)Nc2ncccn2)cc1)C1CC(=O)N(c2ccccc2)C1 (stereo not drawn),-99.5,"29.1 µM [falling, partial curve, poor fit]",–

Source: PubChem BioAssay AID2685 (National Center for Advancing Translational Sciences (NCATS), 2010)
